# Experimental data: PubChem BioAssay AID652060 (Broad Institute, 2013)
# Inconclusive means that the source gave no clear call.
# Assay: nonspecific luciferase activators in D54 LucT cells, dose response, counter-screen for N-linked glycosylation inhibitor project, cell-based, luminescence, dry powder (AID 652060)
# Settings: D54 LucT luciferase counterscreen, 24 h; at 19.5 µM (top of the series); call rule not given here
compound,measurement,value
c1ccc(CSc2nnc(-c3ccccc3)o2)cc1,luciferase activity increase,inconclusive: 66.7%
